A short description of this test: qHTS Assay for Modulators of Lamin A Splicing. The note with it: HeLa LMNA splicing GFP/RFP minigene ratio, 48 h. Put shortly:
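S3 HeLa stable clones carrying a lamin A-EGFP splicing minigene plus DsRed2 were seeded at 600 cells/well in Opti-MEM with 2% FBS, pin-dosed and incubated 48 h at 37°C. Acumen cytometry (488 nm) gave the GFP/RFP total-intensity ratio.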

Where [1] appears, read: measured here: RFP viability control channel.
[2] abbreviates: measured here: GFP splicing reporter channel.

Some of the results follow. Further columns of the screen follow, without active or inactive calls. Compounds called inactive in the main read-out are mostly missing here. Potencies come from curve fits of mixed quality, noted in brackets.

One may read the AC50 as the concentration giving half of the maximal activity seen. As to `CCn1c(-c2ccc(F)cc2)cnc1SCC(=O)N1CCc2ccccc21`, the AC50 under setting [1] is 25.1 µM [rising, single point].

In the case of `Cc1cc[n+](CC(=O)c2ccc(NC(=O)c3ccccc3)cc2)c2ccccc12`, under setting [2], the AC50 is 11.2 µM [falling, partial curve].

As for `Cc1nc([N+](=O)[O-])nn1C12CC3CC(CC(Br)(C3)C1)C2`, the AC50 under setting [2] is 6.31 µM [falling, single point] and the concentration at half-maximal activity (AC50) under setting [1] is 5.62 µM [falling, single point].

Turning to `O=C(CCC(=O)c1cccs1)c1cccs1`, the AC50 under setting [1] is 35.5 µM [falling, single point].

For the compound `CCc1nc(SCc2ccccn2)[nH]c(=O)c1C`, the AC50 under setting [1] was 31.6 µM [rising, partial curve].

For `COc1ccc(-c2noc(CCC(=O)N(C)c3cccc(C)c3)n2)cc1`, under setting [1], the AC50 was 35.5 µM [rising, single point].

Turning to `OC1CCCN(c2c3c(nc4cc(-c5cccc(Cl)c5)nn24)CCC3)C1` (configuration not stated), the AC50 under setting [1] is 35.5 µM [rising, single point].

Turning to `Cc1ccc(CNC(=O)c2ccc(N3CCc4ccccc43)c([N+](=O)[O-])c2)cc1`, the AC50 under setting [1] is 20 µM [rising, single point].

For the compound `CC(C)=C1C2CC2C2C(C(=O)O)C12` (configuration not stated), the AC50 reads like this: under setting [2], 5.01 µM [rising, partial curve]; under setting [1], 2.82 µM [rising, partial curve, poor fit].

As for `COc1ccc(NC(=O)Cn2nnc(-c3ccccc3NC(=O)c3ccco3)n2)cc1`, under setting [1], the AC50 is 4.47 µM [rising, single point].

As to `Cc1c(/C=N/NC(=O)c2cccnc2)c2ccccc2n1Cc1ccccc1`, the AC50 under setting [2] was 0.00316 µM [rising, full curve, poor fit].

In the case of `CCOc1ccc(C(=O)Nc2cccc(SC)c2)cc1`, the AC50 under setting [2] is 6.31 µM [rising, partial curve, poor fit] and the AC50 under setting [1] was 10 µM [rising, partial curve].

In the case of `COc1ccc(NC(=O)C2CCCN(S(=O)(=O)c3cccc4cccnc34)C2)cc1OC` (configuration not stated), under setting [1], the AC50 was 3.98 µM [rising, partial curve].

Turning to `Cc1cccc(OCc2nc(-c3ccccn3)n[nH]2)c1`, the AC50 reads like this: under setting [2], 11.2 µM [rising, partial curve]; under setting [1], 15.8 µM [rising, partial curve].

As to `Fc1ccc(Cn2cccc2C2=NC(c3ccccc3)CO2)cc1` (configuration not stated), the AC50 runs as follows: under setting [2], 2.51 µM [rising, partial curve, poor fit]; under setting [1], 1.41 µM [rising, partial curve].

Turning to `O=C(NN1C(=O)/C(=C/c2cccnc2)SC1=S)C(c1ccccc1)c1ccccc1`, the AC50 runs as follows: under setting [2], 12.6 µM [falling, single point]; under setting [1], 35.5 µM [falling, single point].

On to `O=C(CN1CCOCC1)Nc1cccc(C(=O)Nc2cccc(C(F)(F)F)c2)c1`, for which the AC50 under setting [1] was 22.4 µM [rising, partial curve, poor fit].

In the case of `Cc1cccc(OCc2nnc(SCC(=O)N(C(C)C)C(C)C)n2Cc2ccco2)c1C`, the AC50 under setting [2] is 2.51 µM [rising, full curve, poor fit] and the AC50 under setting [1] was 8.91 µM [rising, partial curve].

For `Oc1c(C(c2ccc(Cl)cc2Cl)N2CCN(c3ccccc3)CC2)sc2nc(-c3ccco3)nn12` (configuration not stated), the AC50 reads like this: under setting [2], 14.1 µM [falling, partial curve]; under setting [1], 11.2 µM [falling, partial curve].

Regarding `CCCCC(CC)CNC(=O)Cn1c(=O)[nH]c2ccsc2c1=O` (configuration not stated), the AC50 under setting [2] was 1.41 µM [rising, full curve, poor fit].

As for `CCN(CC)CCNC(=O)c1c(C)n(-c2ccccc2)c2cc(Br)c(OC)cc12`, the AC50 runs as follows: under setting [2], 0.1 µM [falling, partial curve]; under setting [1], 12.6 µM [falling, single point].

For the compound `CCN1C(C(=O)c2ccccc2)=C(Nc2ccccc2C)c2ccccc2S1(=O)=O`, the AC50 reads like this: under setting [2], 11.2 µM [rising, partial curve]; under setting [1], 14.1 µM [rising, partial curve].

On to `CCn1c(CSc2ncccn2)nnc1SCC(=O)N1CCc2ccccc21`, for which the AC50 under setting [2] was 0.282 µM [rising, single point].

Turning to `Cc1nc2ccc(NS(=O)(=O)c3ccc4c(c3)OCCO4)cc2s1`, under setting [1], the AC50 was 0.708 µM [rising, full curve].

As to `O=c1[nH]c(-c2ccccn2)nc2ccccc12`, the AC50 under setting [1] is 35.5 µM [rising, single point].

Turning to `Cc1onc(-c2ccccc2Cl)c1C(=O)Oc1cccc2cccnc12`, the AC50 reads like this: under setting [2], 3.16 µM [falling, partial curve]; under setting [1], 35.5 µM [falling, single point].

`COc1ccc(Oc2c(-c3ccc(O)cc3O)n[nH]c2C)cc1`: the AC50 is 12.6 µM [rising, single point] under setting [2] and 12.6 µM [rising, partial curve] under setting [1].

On to `CC(=O)c1cn(CC(=O)Nc2ccc(C)cc2C)c2ccccc12`, for which the AC50 under setting [1] was 3.16 µM [rising, full curve].

In the case of `Cc1ccc(S(=O)(=O)Nc2nc3ccccc3nc2NCc2ccco2)cc1C`, the AC50 is 2.82 µM [rising, full curve] under setting [2] and 5.62 µM [rising, full curve] under setting [1].

On to `CN(c1ccc(C(=O)NCc2cccnc2)cc1)S(C)(=O)=O`, for which the AC50 under setting [1] was 0.316 µM [falling, full curve, poor fit].

As for `COc1ccc(CNC(=O)c2cnc3sc(N4CCCCCC4)nn3c2=O)cc1`, under setting [1], the AC50 is 0.0112 µM [falling, full curve, poor fit].

Turning to `CC(=O)OCC(=O)c1c[nH]c2ccccc12`, the AC50 under setting [1] is 22.4 µM [falling, partial curve, poor fit].

As for `O=C(Oc1cccc(C(=S)N2CCOCC2)c1)c1cc([N+](=O)[O-])cc([N+](=O)[O-])c1`, the AC50 under setting [2] is 11.2 µM [falling, single point].

Take `Cc1ccc(N/N=C(\Cc2nc3ccccc3[nH]2)c2ccccc2)cc1`: the concentration at half-maximal activity (AC50) under setting [1] is 5.62 µM [rising, single point].

Take `O=C(Nc1ccc(F)cc1)c1ccc(-n2cncn2)c([N+](=O)[O-])c1`: the AC50 under setting [2] is 17.8 µM [rising, single point].

In the case of `COc1ccc(C)cc1NC(=O)CN1CCN(C/C=C/c2ccccc2)CC1`, the AC50 under setting [1] is 35.5 µM [rising, single point].

For the compound `CCOC(=O)c1nnn(-c2nonc2-n2cccc2)c1CCl`, the AC50 is, setting by setting: under setting [2], 3.98 µM [rising, single point]; under setting [1], 5.62 µM [rising, single point].

Regarding `COc1ccc(NC(=O)NN2CCOCC2)cc1OC`, the AC50 under setting [2] was 39.8 µM [falling, partial curve, poor fit].

Turning to `O=C(Nc1c(S(=O)(=O)c2ccc(Cl)cc2)csc1Br)c1ccccc1Cl`, under setting [1], the AC50 is 22.4 µM [falling, single point].

Take `O=S(=O)(Nc1cccc(C(F)(F)F)c1)c1ccc(-c2cnc(C3CC3)o2)cc1`: the AC50 by setting is: under setting [2], 12.6 µM [falling, partial curve, poor fit]; under setting [1], 1.26 µM [rising, partial curve].

Regarding `Cc1ccc(C)c2[nH]c(=O)c(CCNC(=O)c3ccco3)cc12`, the AC50 runs as follows: under setting [2], 0.447 µM [rising, partial curve]; under setting [1], 0.141 µM [rising, full curve].

In the case of `CCc1nnc(NC(=O)CSc2nnc(CNc3ccc(OC)cc3)n2C)s1`, the AC50 under setting [2] was 22.4 µM [rising, single point] and the AC50 under setting [1] was 0.141 µM [rising, full curve, poor fit].

Turning to `CCN(CC)c1ccc(NC(=O)c2ccccc2)cc1S(=O)(=O)Nc1ccccc1OC`, the AC50 under setting [1] was 7.94 µM [rising, partial curve, poor fit].

`O=C(NNC(=S)NC(=O)c1ccccc1[N+](=O)[O-])c1ccccc1Cl`: the AC50 under setting [1] was 31.6 µM [rising, single point].

`CC(C)c1ccc(/C=C/C(=O)NCCCc2ccccc2)cc1`: under setting [1], the AC50 is 10 µM [rising, partial curve, poor fit].

For `Cc1c(/C=N/Nc2ccc(F)cc2)c(O)n(C)c(=O)c1C#N`, the AC50 under setting [2] was 4.47 µM [falling, full curve, poor fit].

With `O=[N+]([O-])c1cc2oc3c(c2c(C=NCc2ccccc2)c1O)CCCC3`, under setting [2], the AC50 is 6.31 µM [falling, single point].

`CC(C)N=C1NN=C(c2ccc(Cl)c(Cl)c2)CS1`: the AC50 under setting [2] is 0.794 µM [rising, full curve, poor fit].

With `COc1cccc(-c2nnc(SCC(=O)Nc3cc(C)on3)o2)c1`, the AC50 is 22.4 µM [rising, single point] under setting [2] and 12.6 µM [rising, partial curve] under setting [1].

Regarding `CN(c1ccc(OCC(=O)Nc2nc(-c3ccccc3)cs2)cc1)S(=O)(=O)c1ccc(F)cc1`, under setting [1], the AC50 was 12.6 µM [rising, partial curve].

`O=C(N/N=C/c1cc([N+](=O)[O-])ccc1O)C12CC3CC(CC(C3)C1)C2`: under setting [1], the AC50 was 3.16 µM [falling, single point].

On to `CN1CCCCc2c1nc1ccccc1c2N` (tested in a mixture with another compound), for which the AC50 runs as follows: under setting [2], 5.62 µM [falling, single point]; under setting [1], 5.62 µM [falling, single point].

Consider `CCOC(=O)CN1N=C(/C=C/c2ccc(C(C)C)cc2)CCC1=O`, for which, under setting [1], the AC50 was 14.1 µM [falling, single point].

As to `CC(C)n1c(SCCCc2ccccc2)nc2c1c(=O)[nH]c(=O)n2C`, under setting [1], the AC50 was 35.5 µM [rising, single point].

As for `Cc1ccc(NC(=O)/C(C#N)=C/c2ccc(C)s2)c(C)c1`, the AC50 runs as follows: under setting [2], 35.5 µM [falling, single point]; under setting [1], 35.5 µM [falling, partial curve, poor fit].

In the case of `Fc1ccc(N/N=C/c2ccncc2)c(F)c1`, the concentration at half-maximal activity (AC50) reads like this: under setting [2], 12.6 µM [falling, partial curve, poor fit]; under setting [1], 10 µM [falling, partial curve].

(Values after PubChem BioAssay AID1487 (National Center for Advancing Translational Sciences (NCATS), 2009).)
